Our source for the half-life values is ChEMBL document CHEMBL4825757, “Optimization of 4,6-Disubstituted Pyrido[3,2-d]pyrimidines as Dual MNK/PIM Inhibitors to Inhibit Leukemia Cell Growth” (J Med Chem, 2021).

The nature of the data set: Metabolic stability in human liver microsomes assessed as half life preincubated for 10 mins followed by NADPH addition and further incubated upto 60 mins by LC-MS/MS analysis. The format is ADME, Microsome. Conditions: time <=70 min.

What is called half-life is how long it takes for the measured level to halve. Take `Cc1ncc2n1-c1ccc(Cl)cc1C(c1ccccc1F)=NC2` [MIDAZOLAM]: the half-life was found to be 7.95 min.
